Among the data in paper PMC8940927 are binding values, retold here.

Protein sequences, listed by entry. Tags and fused reporters are not part of them.
UniProt P43006: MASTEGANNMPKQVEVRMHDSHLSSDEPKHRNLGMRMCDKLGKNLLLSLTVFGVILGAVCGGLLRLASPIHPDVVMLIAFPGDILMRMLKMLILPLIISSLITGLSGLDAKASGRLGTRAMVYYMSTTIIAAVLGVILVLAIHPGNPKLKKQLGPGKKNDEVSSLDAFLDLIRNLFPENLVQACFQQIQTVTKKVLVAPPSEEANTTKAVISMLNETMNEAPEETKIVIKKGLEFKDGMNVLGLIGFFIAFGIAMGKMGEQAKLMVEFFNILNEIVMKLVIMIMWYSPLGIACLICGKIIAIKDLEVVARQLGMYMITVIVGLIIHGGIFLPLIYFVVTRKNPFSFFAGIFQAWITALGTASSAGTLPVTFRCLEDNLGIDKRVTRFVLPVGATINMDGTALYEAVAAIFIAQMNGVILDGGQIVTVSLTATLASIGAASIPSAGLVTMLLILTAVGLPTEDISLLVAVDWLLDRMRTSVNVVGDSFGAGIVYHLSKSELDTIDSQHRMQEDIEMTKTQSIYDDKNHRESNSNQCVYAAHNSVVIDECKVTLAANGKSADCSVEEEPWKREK

The target of this experiment is GLT-1 (endogenous, mouse brain homogenate) (mouse (endogenous in mouse brain)) (UniProt P43006). In words: affinity purification with mass spectrometry; immunocomplexes from mouse brain homogenate precipitated by the GLT-1 antibody; a band of the Coomassie-stained gel used for mass spectrum analysis.

These are yes or no findings as the source states them, for the method shown. Binding seen in cells or lysates may run through a third protein. A yes stands for co-enrichment or nearness to the bait. Other partners may have been found.

“PKCα (endogenous, mouse brain homogenate) (from UniProt P20444 1-672) (enzyme)”: the binding entry is “binds”.
